According to the supplement of paper PMC6411743:
± gives the standard deviation of the averaged measurements. The entries are a selection whose mix differs from that of the whole data set. Most values lie at the level of the controls, where differences are scatter.

Chains of the proteins cited; added tags and fusions are not shown. Lines headed by an entry give the natural chain unless they say otherwise; changes in a name come on top.
UniProt Q9BVL4, whole entry: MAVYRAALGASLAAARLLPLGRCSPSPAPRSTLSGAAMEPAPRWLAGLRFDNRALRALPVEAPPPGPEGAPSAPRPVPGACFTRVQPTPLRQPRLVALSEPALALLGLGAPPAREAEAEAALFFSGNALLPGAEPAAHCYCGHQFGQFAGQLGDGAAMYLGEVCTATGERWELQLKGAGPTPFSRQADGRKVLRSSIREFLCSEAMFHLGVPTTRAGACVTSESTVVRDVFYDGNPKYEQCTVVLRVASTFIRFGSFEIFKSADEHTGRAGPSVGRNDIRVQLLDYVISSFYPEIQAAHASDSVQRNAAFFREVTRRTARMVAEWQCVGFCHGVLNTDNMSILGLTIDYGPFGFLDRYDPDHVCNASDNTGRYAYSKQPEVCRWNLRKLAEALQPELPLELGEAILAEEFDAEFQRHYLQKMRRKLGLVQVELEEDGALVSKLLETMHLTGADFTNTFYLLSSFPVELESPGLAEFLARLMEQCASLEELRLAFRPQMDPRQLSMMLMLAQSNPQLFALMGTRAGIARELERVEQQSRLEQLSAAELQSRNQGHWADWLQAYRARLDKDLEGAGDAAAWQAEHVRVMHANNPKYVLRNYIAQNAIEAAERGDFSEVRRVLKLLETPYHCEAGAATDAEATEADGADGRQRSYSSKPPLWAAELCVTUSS
UniProt P30566: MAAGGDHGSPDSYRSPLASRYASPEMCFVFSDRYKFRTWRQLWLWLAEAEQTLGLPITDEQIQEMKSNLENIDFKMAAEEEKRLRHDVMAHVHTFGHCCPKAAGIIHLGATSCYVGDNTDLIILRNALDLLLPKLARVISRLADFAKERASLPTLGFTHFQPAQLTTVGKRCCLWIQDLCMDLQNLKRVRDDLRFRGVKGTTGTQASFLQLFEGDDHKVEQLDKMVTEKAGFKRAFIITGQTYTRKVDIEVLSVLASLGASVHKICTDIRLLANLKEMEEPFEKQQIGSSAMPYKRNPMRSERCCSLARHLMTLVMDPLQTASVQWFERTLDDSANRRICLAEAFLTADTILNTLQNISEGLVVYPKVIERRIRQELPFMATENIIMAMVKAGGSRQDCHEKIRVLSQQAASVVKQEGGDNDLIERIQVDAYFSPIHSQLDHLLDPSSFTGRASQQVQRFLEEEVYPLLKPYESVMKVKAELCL
UniProt Q15185: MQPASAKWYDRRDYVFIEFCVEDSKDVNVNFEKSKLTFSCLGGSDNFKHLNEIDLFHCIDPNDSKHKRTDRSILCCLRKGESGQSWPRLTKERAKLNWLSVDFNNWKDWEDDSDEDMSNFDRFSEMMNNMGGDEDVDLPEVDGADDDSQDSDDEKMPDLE
UniProt Q14517: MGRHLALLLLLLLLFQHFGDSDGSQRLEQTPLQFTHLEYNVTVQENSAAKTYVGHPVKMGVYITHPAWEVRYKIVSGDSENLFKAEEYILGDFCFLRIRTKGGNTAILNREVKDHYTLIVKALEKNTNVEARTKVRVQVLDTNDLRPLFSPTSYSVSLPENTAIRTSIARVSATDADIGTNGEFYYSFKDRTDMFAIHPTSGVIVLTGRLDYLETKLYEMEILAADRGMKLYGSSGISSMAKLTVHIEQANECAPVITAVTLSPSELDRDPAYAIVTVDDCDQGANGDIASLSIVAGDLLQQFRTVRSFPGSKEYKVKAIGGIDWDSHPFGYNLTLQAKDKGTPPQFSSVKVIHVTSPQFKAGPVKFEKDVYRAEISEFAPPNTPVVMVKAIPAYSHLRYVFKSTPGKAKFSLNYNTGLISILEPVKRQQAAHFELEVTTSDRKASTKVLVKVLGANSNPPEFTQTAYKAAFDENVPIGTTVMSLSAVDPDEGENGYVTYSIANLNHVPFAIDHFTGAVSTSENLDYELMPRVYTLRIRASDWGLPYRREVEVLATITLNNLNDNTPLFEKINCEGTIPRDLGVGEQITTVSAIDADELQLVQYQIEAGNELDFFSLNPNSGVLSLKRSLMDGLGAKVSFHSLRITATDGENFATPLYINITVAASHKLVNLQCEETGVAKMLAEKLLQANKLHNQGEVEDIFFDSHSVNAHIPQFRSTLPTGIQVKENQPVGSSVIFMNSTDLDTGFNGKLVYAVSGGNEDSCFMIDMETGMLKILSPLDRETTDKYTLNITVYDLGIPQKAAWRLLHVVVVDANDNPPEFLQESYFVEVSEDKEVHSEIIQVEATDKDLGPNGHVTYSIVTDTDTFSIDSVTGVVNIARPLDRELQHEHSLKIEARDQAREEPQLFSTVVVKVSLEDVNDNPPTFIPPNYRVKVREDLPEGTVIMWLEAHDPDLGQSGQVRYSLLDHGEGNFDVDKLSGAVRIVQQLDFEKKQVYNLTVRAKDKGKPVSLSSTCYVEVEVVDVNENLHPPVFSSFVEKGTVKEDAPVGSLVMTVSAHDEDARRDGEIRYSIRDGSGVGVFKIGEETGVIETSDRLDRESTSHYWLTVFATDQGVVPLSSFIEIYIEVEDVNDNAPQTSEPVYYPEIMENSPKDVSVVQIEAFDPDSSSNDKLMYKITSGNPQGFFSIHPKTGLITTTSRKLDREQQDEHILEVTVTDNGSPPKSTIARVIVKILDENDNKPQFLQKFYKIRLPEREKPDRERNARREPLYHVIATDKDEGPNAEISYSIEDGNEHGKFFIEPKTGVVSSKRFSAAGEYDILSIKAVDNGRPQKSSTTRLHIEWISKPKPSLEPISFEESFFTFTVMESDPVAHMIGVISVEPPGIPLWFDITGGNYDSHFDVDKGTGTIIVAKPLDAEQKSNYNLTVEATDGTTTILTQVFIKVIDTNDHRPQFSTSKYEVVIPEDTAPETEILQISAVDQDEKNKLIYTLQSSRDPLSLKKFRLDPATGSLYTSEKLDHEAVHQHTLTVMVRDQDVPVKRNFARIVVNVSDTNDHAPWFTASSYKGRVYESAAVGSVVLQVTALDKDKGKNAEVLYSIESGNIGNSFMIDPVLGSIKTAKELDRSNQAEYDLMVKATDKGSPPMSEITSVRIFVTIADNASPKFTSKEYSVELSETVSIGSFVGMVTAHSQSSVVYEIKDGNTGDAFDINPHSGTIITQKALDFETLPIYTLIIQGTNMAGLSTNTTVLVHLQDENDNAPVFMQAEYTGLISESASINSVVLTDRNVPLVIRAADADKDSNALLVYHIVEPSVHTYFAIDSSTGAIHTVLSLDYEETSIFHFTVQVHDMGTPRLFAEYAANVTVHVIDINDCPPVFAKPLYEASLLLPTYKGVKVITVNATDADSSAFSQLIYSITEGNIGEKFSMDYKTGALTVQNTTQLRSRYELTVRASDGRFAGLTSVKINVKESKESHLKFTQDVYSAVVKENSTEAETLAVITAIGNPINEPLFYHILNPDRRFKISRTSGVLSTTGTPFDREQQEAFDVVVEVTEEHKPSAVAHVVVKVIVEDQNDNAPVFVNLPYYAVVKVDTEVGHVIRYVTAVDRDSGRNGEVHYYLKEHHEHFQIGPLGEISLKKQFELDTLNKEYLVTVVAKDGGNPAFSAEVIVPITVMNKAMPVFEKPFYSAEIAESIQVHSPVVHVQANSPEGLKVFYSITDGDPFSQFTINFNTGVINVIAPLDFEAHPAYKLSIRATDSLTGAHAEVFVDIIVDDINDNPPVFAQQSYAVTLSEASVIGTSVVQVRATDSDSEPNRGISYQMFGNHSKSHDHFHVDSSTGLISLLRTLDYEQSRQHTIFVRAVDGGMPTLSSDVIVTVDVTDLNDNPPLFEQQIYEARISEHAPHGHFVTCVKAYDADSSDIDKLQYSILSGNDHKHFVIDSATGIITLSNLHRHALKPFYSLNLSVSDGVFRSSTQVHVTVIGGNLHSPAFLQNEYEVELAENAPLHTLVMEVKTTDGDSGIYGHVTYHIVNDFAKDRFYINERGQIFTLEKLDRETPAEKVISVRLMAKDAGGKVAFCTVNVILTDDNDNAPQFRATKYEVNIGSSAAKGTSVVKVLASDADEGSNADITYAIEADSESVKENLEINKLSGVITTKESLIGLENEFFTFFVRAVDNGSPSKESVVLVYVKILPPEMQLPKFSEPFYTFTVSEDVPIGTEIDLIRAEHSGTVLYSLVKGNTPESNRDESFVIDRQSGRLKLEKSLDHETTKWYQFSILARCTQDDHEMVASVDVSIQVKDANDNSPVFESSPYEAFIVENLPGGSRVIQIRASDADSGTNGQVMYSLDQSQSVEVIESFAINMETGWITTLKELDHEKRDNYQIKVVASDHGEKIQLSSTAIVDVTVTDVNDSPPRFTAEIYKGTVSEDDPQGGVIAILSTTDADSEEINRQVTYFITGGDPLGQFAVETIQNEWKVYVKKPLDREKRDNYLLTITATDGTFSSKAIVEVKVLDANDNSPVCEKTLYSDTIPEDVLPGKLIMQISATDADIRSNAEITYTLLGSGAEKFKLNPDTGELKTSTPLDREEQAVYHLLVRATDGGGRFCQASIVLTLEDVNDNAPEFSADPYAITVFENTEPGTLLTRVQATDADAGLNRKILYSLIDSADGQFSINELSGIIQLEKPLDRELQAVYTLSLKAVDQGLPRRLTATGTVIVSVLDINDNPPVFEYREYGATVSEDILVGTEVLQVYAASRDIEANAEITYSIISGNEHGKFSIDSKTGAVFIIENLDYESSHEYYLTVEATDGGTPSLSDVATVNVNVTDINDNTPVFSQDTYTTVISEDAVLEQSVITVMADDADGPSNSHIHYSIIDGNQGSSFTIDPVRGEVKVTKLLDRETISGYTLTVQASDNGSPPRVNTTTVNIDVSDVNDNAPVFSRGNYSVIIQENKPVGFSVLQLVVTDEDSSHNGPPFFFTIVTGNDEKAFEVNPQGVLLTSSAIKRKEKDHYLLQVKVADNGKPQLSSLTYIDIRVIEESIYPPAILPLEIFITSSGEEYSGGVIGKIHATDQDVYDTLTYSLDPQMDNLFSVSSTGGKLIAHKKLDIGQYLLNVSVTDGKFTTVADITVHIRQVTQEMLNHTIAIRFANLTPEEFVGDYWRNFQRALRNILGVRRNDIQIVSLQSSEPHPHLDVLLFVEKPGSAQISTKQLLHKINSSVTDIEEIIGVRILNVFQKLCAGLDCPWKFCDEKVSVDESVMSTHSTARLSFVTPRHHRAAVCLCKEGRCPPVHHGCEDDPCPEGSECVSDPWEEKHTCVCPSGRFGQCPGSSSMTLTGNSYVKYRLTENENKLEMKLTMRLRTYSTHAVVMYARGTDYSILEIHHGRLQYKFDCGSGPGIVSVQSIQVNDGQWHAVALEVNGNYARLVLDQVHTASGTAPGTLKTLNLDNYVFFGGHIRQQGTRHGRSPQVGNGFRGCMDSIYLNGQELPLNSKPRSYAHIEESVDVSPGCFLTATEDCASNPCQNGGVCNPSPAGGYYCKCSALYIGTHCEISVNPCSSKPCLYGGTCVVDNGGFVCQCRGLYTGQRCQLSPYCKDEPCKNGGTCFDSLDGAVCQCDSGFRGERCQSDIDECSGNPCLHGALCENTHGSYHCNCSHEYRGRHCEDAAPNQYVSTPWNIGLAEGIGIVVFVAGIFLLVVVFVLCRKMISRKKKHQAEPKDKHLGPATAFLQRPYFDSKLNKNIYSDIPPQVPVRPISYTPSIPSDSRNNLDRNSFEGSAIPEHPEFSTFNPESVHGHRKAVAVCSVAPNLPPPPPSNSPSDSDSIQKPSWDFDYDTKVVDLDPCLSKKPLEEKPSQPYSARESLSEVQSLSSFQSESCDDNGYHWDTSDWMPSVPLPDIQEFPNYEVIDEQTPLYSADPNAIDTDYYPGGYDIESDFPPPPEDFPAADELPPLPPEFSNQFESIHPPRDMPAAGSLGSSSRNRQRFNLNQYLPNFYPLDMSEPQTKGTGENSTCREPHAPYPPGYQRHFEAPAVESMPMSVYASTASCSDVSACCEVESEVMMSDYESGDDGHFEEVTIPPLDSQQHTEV
UniProt Q8IY67: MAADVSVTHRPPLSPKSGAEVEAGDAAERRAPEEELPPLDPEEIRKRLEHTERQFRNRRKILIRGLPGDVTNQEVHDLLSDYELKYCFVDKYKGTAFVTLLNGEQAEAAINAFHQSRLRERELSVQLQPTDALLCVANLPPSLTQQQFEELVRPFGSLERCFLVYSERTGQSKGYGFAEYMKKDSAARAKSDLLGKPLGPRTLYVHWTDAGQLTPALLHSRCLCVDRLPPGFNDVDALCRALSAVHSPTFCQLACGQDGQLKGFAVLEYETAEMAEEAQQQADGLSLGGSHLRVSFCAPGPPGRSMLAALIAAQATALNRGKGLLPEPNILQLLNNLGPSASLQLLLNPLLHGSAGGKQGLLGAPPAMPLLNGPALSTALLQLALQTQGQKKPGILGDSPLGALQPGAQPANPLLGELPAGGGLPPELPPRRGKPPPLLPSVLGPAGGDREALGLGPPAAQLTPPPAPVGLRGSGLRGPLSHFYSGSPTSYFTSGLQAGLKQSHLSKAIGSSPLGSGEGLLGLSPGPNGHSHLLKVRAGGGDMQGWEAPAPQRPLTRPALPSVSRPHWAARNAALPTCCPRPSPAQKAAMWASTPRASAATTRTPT

Compound: Nc1ncnc2c1ncn2[C@@H]1O[C@H](COP(=O)(O)OP(=O)(O)OP(=O)(O)O)[C@@H](O)[C@H]1O [adenosine triphosphate]
Test: NP40-soluble protein abundance relative to vehicle (solubility fold change) (ratio); higher = more soluble protein in presence of ATP
How it was run: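 Eight concentrations, 0.1 to 10 mM, were tested on Jurkat crude lysate for 10 min at room temperature and then 3 min at 37 °C, in three independent experiments. The lysate was solubilised with 0.8% NP40 and benzonase, ultracentrifuged, and the supernatant TMT-labelled for LC-MS/MS. Each value is the fold change against the detergent-processed vehicle in its own replicate, from vsn-normalised intensities.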

How did the NP40-soluble protein abundance (concentration: 0.1mM) turn out when “A0A087WTU9|A0A087WZY3|Q8TCU4 and related entries (UniProt Q8TCU4)” was run?
The NP40-soluble protein abundance was 0.996 ± 0.096.

And the NP40-soluble protein abundance (concentration: 0.5mM)?
The NP40-soluble protein abundance was 0.872 ± 0.12.

Which results are given for A0A0A0MT33|Q9UPN6 (UniProt Q9UPN6)?
NP40-soluble protein abundance (concentration: 0.1mM): 1.02 ± 0.046; NP40-soluble protein abundance (concentration: 0.5mM): 1.07 ± 0.081

How did the NP40-soluble protein abundance (concentration: 0.1mM) turn out when A0A087X0N3 (UniProt Q96MY1) was run?
The NP40-soluble protein abundance was 0.927 ± 0.025.

And the NP40-soluble protein abundance (concentration: 0.5mM)?
The NP40-soluble protein abundance was 0.943 ± 0.025.

With A0A087WXD1|Q96T83 (UniProt Q96T83) as the target, how does the NP40-soluble protein abundance (concentration: 0.1mM) read?
Its NP40-soluble protein abundance is 1.03 ± 0.037.

What about the NP40-soluble protein abundance (concentration: 0.5mM) of the same target?
Its NP40-soluble protein abundance is 0.934 ± 0.089.

With A0A087X0Q9|Q9BVL4 (UniProt Q9BVL4) as the target, how does the NP40-soluble protein abundance (concentration: 0.1mM) read?
Its NP40-soluble protein abundance is 1.07 ± 0.026.

And the NP40-soluble protein abundance (concentration: 0.5mM)?
Its NP40-soluble protein abundance is 1.03 ± 0.048.

For A0A0A6YY92|P30566 (UniProt P30566), which NP40-soluble protein abundance (concentration: 0.1mM) is on record?
The NP40-soluble protein abundance was 1.04 ± 0.091.

And the NP40-soluble protein abundance (concentration: 0.5mM)?
The NP40-soluble protein abundance was 1.05 ± 0.076.

Which NP40-soluble protein abundance (concentration: 0.1mM) does the source give for A0A087WXR7|Q5TBB1 (UniProt Q5TBB1) here?
Its NP40-soluble protein abundance is 0.981 ± 0.068.

What about the NP40-soluble protein abundance (concentration: 0.5mM) of the same target?
Its NP40-soluble protein abundance is 0.972 ± 0.046.

How did the NP40-soluble protein abundance (concentration: 0.1mM) turn out when “A0A0C4DG33|H7BZH3 and related entries (UniProt O43933)” was run?
The NP40-soluble protein abundance was 1.07 ± 0.071.

What about the NP40-soluble protein abundance (concentration: 0.5mM) of the same target?
Its NP40-soluble protein abundance is 1.07 ± 0.076.

Which results are given for A0A087WVZ0|Q9Y5U8 (UniProt Q9Y5U8)?
NP40-soluble protein abundance (concentration: 0.1mM): 0.972 ± 0.058; NP40-soluble protein abundance (concentration: 0.5mM): 0.968 ± 0.033

Which results are given for “A0A0A6YYH1|H0YLI7 and related entries (UniProt Q7Z6K5+P59780+H0YLI7)”?
NP40-soluble protein abundance (concentration: 0.1mM): 0.924 ± 0.065; NP40-soluble protein abundance (concentration: 0.5mM): 0.939 ± 0.011

Which results are given for A0A0A0MTH3|Q13418 (UniProt Q13418)?
NP40-soluble protein abundance (concentration: 0.1mM): 1.01 ± 0.062; NP40-soluble protein abundance (concentration: 0.5mM): 1.02 ± 0.04

How did the NP40-soluble protein abundance (concentration: 0.1mM) turn out when A0A087WYT3|Q15185 (UniProt Q15185) was run?
Its NP40-soluble protein abundance is 0.933 ± 0.08.

And the NP40-soluble protein abundance (concentration: 0.5mM)?
The NP40-soluble protein abundance was 0.96 ± 0.067.

For A0A0C4DG89|Q7L014 (UniProt Q7L014), which NP40-soluble protein abundance (concentration: 0.1mM) is on record?
The NP40-soluble protein abundance was 1.04 ± 0.024.

And the NP40-soluble protein abundance (concentration: 0.5mM)?
Its NP40-soluble protein abundance is 1.13 ± 0.052.

Which results are given for A0A087WVP1|Q14517 (UniProt Q14517)?
NP40-soluble protein abundance (concentration: 0.1mM): 1.01 ± 0.037; NP40-soluble protein abundance (concentration: 0.5mM): 1.02 ± 0.048

How did the NP40-soluble protein abundance (concentration: 0.1mM) turn out when “A0A087X0M1|H0YAA8 and related entries (UniProt Q9H204)” was run?
Its NP40-soluble protein abundance is 0.897 ± 0.26.

What about the NP40-soluble protein abundance (concentration: 0.5mM) of the same target?
The NP40-soluble protein abundance was 0.842 ± 0.29.

Which NP40-soluble protein abundance (concentration: 0.1mM) does the source give for “A0A096LP59|P46100 and related entries (UniProt P46100)” here?
Its NP40-soluble protein abundance is 0.968 ± 0.015.

What about the NP40-soluble protein abundance (concentration: 0.5mM) of the same target?
The NP40-soluble protein abundance was 0.967 ± 0.036.

For A0A087WZ13|E9PAU2 (UniProt Q8IY67), which NP40-soluble protein abundance (concentration: 0.1mM) is on record?
The NP40-soluble protein abundance was 0.99 ± 0.013.

What about the NP40-soluble protein abundance (concentration: 0.5mM) of the same target?
Its NP40-soluble protein abundance is 0.876 ± 0.013.

With A0A0D9SG07|Q9H4G0-4 (UniProt Q9H4G0) as the target, how does the NP40-soluble protein abundance (concentration: 0.1mM) read?
Its NP40-soluble protein abundance is 0.999 ± 0.068.

And the NP40-soluble protein abundance (concentration: 0.5mM)?
Its NP40-soluble protein abundance is 0.957 ± 0.044.

“A0A0C4DFT8|G3XAA4 and related entries (UniProt Q9NQC1)” was tested. Which NP40-soluble protein abundance (concentration: 0.1mM) did it give?
The NP40-soluble protein abundance was 1.15 ± 0.062.

And the NP40-soluble protein abundance (concentration: 0.5mM)?
The NP40-soluble protein abundance was 1.21 ± 0.055.

Which results are given for “A0A087X0I4|M0QXB4 and related entries (UniProt O14579)”?
NP40-soluble protein abundance (concentration: 0.1mM): 1.02 ± 0.037; NP40-soluble protein abundance (concentration: 0.5mM): 1.02 ± 0.012
